The target in this assay is β3-CFP^P379 (mouse) (UniProt Q8BMN3). As to the kind of experiment: acceptor photobleaching FRET, N2a cells, untagged β2 coexpressed.

Our source for the binding values is US20090100532A1, “TRANSGENIC MICE EXPRESSING HYPERSENSITIVE NICOTINIC RECEPTORS” (CALIFORNIA INSTITUTE OF TECHNOLOGY, priority 2007, published 2009).

These are yes or no findings as the source states them, for the method shown. Some results given as binding are weak or reduced against the parent protein; the word gives no strength.

For the substance “α6-YFP^A405 (from UniProt Q9R0W9 31-405; Q9R0W9 406-494) (receptor)”, the binding result was “binds”.
